Measurements reported in PubChem BioAssay AID504793 (Drosophila RNAi Screening Center, 2011)
Purpose: 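Knock-downs allowing continued mitosis even though DNA is damaged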 (primary screen). System: Drosophila S2R+ cells. Reagent: long dsRNA against Drosophila genes, about 0.25 µg dsRNA per well. Duration: 4 days of dsRNA, then 4 hours of drug before read-out. Treatment: doxorubicin 0.5 µM for 4 hours to cause double-strand breaks, in cells also given a low, harmless dose of dsRNA against nbs to sensitise the assay. Measured: 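Mitotic index as the number of phospho-histone H3-positive cells in each well following doxorubicin, given as raw counts without normalisation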. Direction: mitotic cells: higher = more cells in mitosis, weaker G2 arrest. Rule for the call: 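Genes are called active only when high mitotic counts were reproduced with independent dsRNAs and mitosis was checked for delay without damage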. Calls: active = confirmed in follow-up tests; inactive = not confirmed.
The screen tested about 23,000 reagents; below is a random part of those that have a named target and a result. Over the whole deposit, 62 (0.27%) were called active. 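Calls come from follow-up tests whose scores are not deposited, so confirmed genes may have low counts here; counts are not normalised per plate.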 Raw values vary from plate to plate and are shown uncorrected. Unmarked entries are inactive. Reagents against one gene are numbered here. A plus sign joins genes that one reagent is predicted to hit. No sequences are given here.

CG13711 #1 gave mitotic cells, replicate 1 = 6.
Depletion of CG13711 #2 resulted in: mitotic cells, replicate 1 = 7.
Depletion of Arr1 (Arrestin 1) gave: mitotic cells, replicate 1 = 5.
For ACXE (Adenylyl cyclase X E) the deposit lists mitotic cells, replicate 1 = 6.
For CG16985, the values are mitotic cells, replicate 1 = 8.
Silencing of CG14154 resulted in: mitotic cells, replicate 1 = 7.

Records above whose gene name begins with C or c:
CG13711 #1: mitotic cells, replicate 1 = 6
CG13711 #2: mitotic cells, replicate 1 = 7
CG16985: mitotic cells, replicate 1 = 8
CG14154: mitotic cells, replicate 1 = 7

Continued:
Against hpRNA:CR18854 + IP3K1 the deposit lists mitotic cells, replicate 1 = 1.
Depletion of Rcd-1r + CG13102 gave: mitotic cells, replicate 1 = 4.
Against Rh2 (Rhodopsin 2) #1, the entry reads mitotic cells, replicate 1 = 7.
For Rh2 (Rhodopsin 2) #2 the deposit lists mitotic cells, replicate 1 = 12.
Knock-down of CG8560 #1 resulted in: mitotic cells, replicate 1 = 5.
Against CG8560 #2, the entry reads mitotic cells, replicate 1 = 8.
For Mos (Mos oncogene), the values are mitotic cells, replicate 1 = 6.
After knock-down of CG13516, the record shows mitotic cells, replicate 1 = 7.
